Measurements taken from paper PMC8895250.
These are yes or no findings as the source states them, for the method shown. Binding seen in cells or lysates may run through a third protein.

The chains behind the UniProt entries cited, without tags or fusion partners.
UniProt P31354: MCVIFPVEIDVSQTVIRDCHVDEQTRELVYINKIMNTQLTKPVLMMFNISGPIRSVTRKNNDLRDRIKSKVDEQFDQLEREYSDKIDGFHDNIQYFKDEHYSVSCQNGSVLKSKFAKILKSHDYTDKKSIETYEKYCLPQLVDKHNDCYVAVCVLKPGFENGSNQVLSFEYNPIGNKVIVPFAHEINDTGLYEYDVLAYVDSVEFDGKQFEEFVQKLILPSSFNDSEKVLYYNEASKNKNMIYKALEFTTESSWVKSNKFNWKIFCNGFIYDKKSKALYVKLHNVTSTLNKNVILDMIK
UniProt Q59HV7: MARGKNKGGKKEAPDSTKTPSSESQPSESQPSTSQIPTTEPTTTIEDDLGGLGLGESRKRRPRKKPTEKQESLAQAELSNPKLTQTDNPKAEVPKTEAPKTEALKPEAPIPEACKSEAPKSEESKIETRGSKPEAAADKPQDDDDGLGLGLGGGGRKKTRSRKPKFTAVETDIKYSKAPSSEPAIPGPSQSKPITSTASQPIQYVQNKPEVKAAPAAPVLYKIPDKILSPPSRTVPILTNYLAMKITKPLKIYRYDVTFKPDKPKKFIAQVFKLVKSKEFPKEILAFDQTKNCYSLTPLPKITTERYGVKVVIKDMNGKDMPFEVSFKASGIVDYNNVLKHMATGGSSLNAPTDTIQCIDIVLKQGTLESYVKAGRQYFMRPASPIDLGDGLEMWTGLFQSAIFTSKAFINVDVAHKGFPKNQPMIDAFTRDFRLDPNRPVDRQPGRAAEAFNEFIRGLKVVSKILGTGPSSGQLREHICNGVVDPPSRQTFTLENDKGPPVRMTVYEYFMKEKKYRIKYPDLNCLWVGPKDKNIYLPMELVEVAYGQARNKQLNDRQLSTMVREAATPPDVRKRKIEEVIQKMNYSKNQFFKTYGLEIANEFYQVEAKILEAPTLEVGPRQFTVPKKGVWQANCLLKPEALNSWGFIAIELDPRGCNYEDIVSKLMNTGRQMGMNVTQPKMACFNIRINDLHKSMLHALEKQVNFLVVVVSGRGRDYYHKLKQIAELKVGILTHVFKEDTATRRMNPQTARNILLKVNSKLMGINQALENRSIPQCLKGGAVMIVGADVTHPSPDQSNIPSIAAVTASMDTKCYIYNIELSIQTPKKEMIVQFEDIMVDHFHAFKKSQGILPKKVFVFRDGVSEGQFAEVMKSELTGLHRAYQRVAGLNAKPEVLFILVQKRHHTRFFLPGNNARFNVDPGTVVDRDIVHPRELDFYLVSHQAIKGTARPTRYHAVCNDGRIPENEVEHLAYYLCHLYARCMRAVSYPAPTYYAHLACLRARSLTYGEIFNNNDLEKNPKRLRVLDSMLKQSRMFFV

Molecular target: p35 of Bombyx mori nucleopolyhedrovirus (BmNPV), Flag-tagged (from pIZ-p35Flag) (Bombyx mori nucleopolyhedrovirus (BmNPV)) (UniProt P31354)
Assay: co-IP; BmN cells cotransfected with pIZ-p35Flag and pIZ-BmAgo2-HA; lysate immunoprecipitated overnight at 4°C with anti-Flag magnetic beads; beads washed five times with PBS; Western blot

“Bombyx mori Argonaute-2, HA-tagged (from pIZ-BmAgo2-HA) (from UniProt Q59HV7 1-1038)” was tested, and the binding was “no binding”.
